Consider three substances from article PMC5601462.

Sequences of proteins named here, by UniProt entry; tags and fusion partners are left off.
UniProt Q9NQB0: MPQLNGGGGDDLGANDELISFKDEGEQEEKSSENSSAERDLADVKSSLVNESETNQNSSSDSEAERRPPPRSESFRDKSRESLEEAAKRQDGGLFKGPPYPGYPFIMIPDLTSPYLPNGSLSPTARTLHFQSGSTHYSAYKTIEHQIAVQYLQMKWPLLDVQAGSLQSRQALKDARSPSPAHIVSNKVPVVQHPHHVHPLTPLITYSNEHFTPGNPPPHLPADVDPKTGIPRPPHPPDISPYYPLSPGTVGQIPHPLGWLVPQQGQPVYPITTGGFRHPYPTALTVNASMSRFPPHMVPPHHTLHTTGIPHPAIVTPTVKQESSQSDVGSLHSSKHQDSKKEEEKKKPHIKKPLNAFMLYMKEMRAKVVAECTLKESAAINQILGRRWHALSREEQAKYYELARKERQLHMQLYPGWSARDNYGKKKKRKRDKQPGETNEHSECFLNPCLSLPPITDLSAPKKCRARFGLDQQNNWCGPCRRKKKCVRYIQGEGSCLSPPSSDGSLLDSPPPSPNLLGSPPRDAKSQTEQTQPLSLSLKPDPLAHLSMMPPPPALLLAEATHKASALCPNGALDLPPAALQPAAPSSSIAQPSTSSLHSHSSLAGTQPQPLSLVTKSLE
UniProt Q9UI95: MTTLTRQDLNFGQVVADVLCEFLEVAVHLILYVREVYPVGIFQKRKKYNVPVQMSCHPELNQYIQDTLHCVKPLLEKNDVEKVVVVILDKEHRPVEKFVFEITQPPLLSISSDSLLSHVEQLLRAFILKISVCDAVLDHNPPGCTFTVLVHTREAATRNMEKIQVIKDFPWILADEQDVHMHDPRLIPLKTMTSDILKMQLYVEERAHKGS
UniProt Q13257: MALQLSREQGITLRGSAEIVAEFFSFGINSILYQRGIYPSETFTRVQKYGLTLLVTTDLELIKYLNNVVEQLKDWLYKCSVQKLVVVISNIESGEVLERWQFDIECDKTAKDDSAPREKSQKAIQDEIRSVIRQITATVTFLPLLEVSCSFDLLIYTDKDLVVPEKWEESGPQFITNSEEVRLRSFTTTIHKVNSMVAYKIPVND

For one experiment, the target named is T cell factor 4 (human) (UniProt Q9NQB0). As to the kind of experiment: co-IP; lysates (RIPA buffer) of DPCs transduced with the vectors for 24 h; immunoprecipitated with TCF4 antibody or IgG (negative control), blotted for MAD2B (Fig. 4A) or MAD2B/β-catenin (Fig. 4C, with overexpression of β-catenin).
Experiment [1] has as its target mitotic arrest deficient protein MAD2B (human) (UniProt Q9UI95). As to the kind of experiment: co-IP; reverse co-IP: lysates (RIPA buffer) of DPCs transduced with the vectors for 24 h; immunoprecipitated with MAD2B antibody or IgG (negative control), blotted for TCF4 (Fig. 4B).

Results are given in words; binding and its absence hold for the method and conditions named. In cells and extracts the contact can be indirect. Some results given as binding are weak or reduced against the parent protein; the word gives no strength.

As for “mitotic arrest deficient protein MAD2B (from UniProt Q9UI95 1-211)”, in the experiment with T cell factor 4 (human), the binding entry was “binds”.

Take “T cell factor 4 (from UniProt Q9NQB0 1-619)”: the binding entry in experiment [1] was “binds”.

Take “cell cycle checkpoint protein MAD2 (from UniProt Q13257 1-205)”: the binding entry in the experiment with T cell factor 4 (human) is reported as “no binding”.
